Measured values: article PMC9950318
No constants are given. Whether binding was seen depends on the method and setting. In cells and extracts the contact can be indirect. Some entries that bind do so weakly or less than the wild type.

Chains of the proteins cited; added tags and fusions are not shown.
UniProt P60484: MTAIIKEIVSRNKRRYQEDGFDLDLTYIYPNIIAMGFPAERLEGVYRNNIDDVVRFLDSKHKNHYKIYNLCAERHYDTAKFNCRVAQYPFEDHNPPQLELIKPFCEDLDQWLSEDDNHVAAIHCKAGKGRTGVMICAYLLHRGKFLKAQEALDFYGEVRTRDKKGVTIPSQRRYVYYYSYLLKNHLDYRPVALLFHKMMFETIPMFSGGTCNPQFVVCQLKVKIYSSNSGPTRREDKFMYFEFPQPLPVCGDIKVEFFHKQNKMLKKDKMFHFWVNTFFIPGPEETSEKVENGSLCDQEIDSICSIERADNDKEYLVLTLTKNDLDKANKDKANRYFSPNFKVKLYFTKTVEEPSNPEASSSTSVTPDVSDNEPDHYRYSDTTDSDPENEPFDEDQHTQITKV

Biological target: PTEN (endogenous, A549) (human (endogenous in A549)) (UniProt P60484)
Test: co-IP; A549 cells with or without 50x isoleucine for 48 h; immunoprecipitation with anti-PTEN antibody (protein A immunomagnetic bead kit), Western blot; IgG as negative control

Row | binding | Binder
1 | binds weakly | Isoleucine-tRNA ligase, mitochondrial (enzyme, UniProt Q9NSE4 49-1012) SNHQPNSNSGRYRDTVLLPQTSFPMKLLGRQQPDTELEIQQKCGFSELYSWQRERKVKTEFCLHDGPPYANGDPHVGHALNKILKDIANRFHMMNGSKIHFVPGWDCHGLPIEIKVLSELGREAQNLSAMEIRKKARSFAKAAIEKQKSAFIRWGIMADWNNCYYTFDGKYEAKQLRTFYQMYDKGLVYRSYKPVFWSPSSRTALAEAELEYNPEHVSRSIYVKFPLLKPSPKLASLIDGSSPVSILVWTTQPWTIPANEAVCYMPESKYAVVKCSKSGDLYVLAADKVASVASTLETTFETISTLSGVDLENGTCSHPLIPDKASPLLPANHVTMAKGTGLVHTAPAHGMEDYGVASQHNLPMDCLVDEDGVFTDVAGPELQNKAVLEEGTDVVIKMLQTAKNLLKEEKLVHSYPYDWRTKKPVVIRASKQWFINITDIKTAAKELLKKVKFIPGSALNGMVEMMDRRPYWCISRQRVWGVPIPVFHHKTKDEYLINSQTTEHIVKLVEQHGSDIWWTLPPEQLLPKEVLSEVGGPDALEYVPGQDILDIWFDSGTSWSYVLPGPDQRADLYLEGKDQLGGWFQSSLLTSVAARKRAPYKTVIVHGFTLGEKGEKMSKSLGNVIHPDVVVNGGQDQSKEPPYGADVLRWWVADSNVFTEVAIGPSVLNAARDDISKLRNTLRFLLGNVADFNPETDSIPVNDMYVIDQYMLHLLQDLANKITELYKQYDFGKVVRLLRTFYTRELSNFYFSIIKDRLYCEKENDPKRRSCQTALVEILDVIVRSFAPILPHLAEEVFQHIPYIKEPKSVFRTGWISTSSIWKKPGLEEAVESACAMRDSFLGSIPGKNAAEYKVITVIEPGLLFEIIEMLQSEETSSTSQLNELMMASESTLLAQEPREMTADVIELKGKFLINLEGGDIREESSYKVIVMPTTKEKCPRCWKYTAESSDTLCPRCAEVVSGK
2 | binds | Isoleucine-tRNA ligase, cytoplasmic (enzyme, UniProt P41252 1-1262) MLQQVPENINFPAEEEKILEFWTEFNCFQECLKQSKHKPKFTFYDGPPFATGLPHYGHILAGTIKDIVTRYAHQSGFHVDRRFGWDCHGLPVEYEIDKTLGIRGPEDVAKMGITEYNNQCRAIVMRYSAEWKSTVSRLGRWIDFDNDYKTLYPQFMESVWWVFKQLYDKGLVYRGVKVMPFSTACNTPLSNFESHQNYKDVQDPSVFVTFPLEEDETVSLVAWTTTPWTLPSNLAVCVNPEMQYVKIKDVARGRLLILMEARLSALYKLESDYEILERFPGAYLKGKKYRPLFDYFLKCKENGAFTVLVDNYVKEEEGTGVVHQAPYFGAEDYRVCMDFNIIRKDSLPVCPVDASGCFTTEVTDFAGQYVKDADKSIIRTLKEQGRLLVATTFTHSYPFCWRSDTPLIYKAVPSWFVRVENMVDQLLRNNDLCYWVPELVREKRFGNWLKDARDWTISRNRYWGTPIPLWVSDDFEEVVCIGSVAELEELSGAKISDLHRESVDHLTIPSRCGKGSLHRISEVFDCWFESGSMPYAQVHYPFENKREFEDAFPADFIAEGIDQTRGWFYTLLVLATALFGQPPFKNVIVNGLVLASDGQKMSKRKKNYPDPVSIIQKYGADALRLYLINSPVVRAENLRFKEEGVRDVLKDVLLPWYNAYRFLIQNVLRLQKEEEIEFLYNENTVRESPNITDRWILSFMQSLIGFFETEMAAYRLYTVVPRLVKFVDILTNWYVRMNRRRLKGENGMEDCVMALETLFSVLLSLCRLMAPYTPFLTELMYQNLKVLIDPVSVQDKDTLSIHYLMLPRVREELIDKKTESAVSQMQSVIELGRVIRDRKTIPIKYPLKEIVVIHQDPEALKDIKSLEKYIIEELNVRKVTLSTDKNKYGIRLRAEPDHMVLGKRLKGAFKAVMTSIKQLSSEELEQFQKTGTIVVEGHELHDEDIRLMYTFDQATGGTAQFEAHSDAQALVLLDVTPDQSMVDEGMAREVINRIQKLRKKCNLVPTDEITVYYKAKSEGTYLNSVIESHTEFIFTTIKAPLKPYPVSPSDKVLIQEKTQLKGSELEITLTRGSSLPGPACAYVNLNICANGSEQGGVLLLENPKGDNRLDLLKLKSVVTSIFGVKNTELAVFHDETEIQNQTDLLSLSGKTLCVTAGSAPSLINSSSTLLCQYINLQLLNAKPQECLMGTVGTLLLENPLGQNGLTHQGLLYEAAKVFGLRSRKLKLFLNETQTQEITEDIPVKTLNMKTVYVSVLPTTADF
